No constants are given. Whether binding was seen depends on the method and setting. In cells and extracts the contact can be indirect. A yes stands for co-enrichment or nearness to the bait. Other partners may have been found. Sequences can lack the tags named with a protein.
T1: FLAG-CPVL (carboxypeptidase, vitellogenic-like) (human) (UniProt Q9H3G5)
T1 sequence: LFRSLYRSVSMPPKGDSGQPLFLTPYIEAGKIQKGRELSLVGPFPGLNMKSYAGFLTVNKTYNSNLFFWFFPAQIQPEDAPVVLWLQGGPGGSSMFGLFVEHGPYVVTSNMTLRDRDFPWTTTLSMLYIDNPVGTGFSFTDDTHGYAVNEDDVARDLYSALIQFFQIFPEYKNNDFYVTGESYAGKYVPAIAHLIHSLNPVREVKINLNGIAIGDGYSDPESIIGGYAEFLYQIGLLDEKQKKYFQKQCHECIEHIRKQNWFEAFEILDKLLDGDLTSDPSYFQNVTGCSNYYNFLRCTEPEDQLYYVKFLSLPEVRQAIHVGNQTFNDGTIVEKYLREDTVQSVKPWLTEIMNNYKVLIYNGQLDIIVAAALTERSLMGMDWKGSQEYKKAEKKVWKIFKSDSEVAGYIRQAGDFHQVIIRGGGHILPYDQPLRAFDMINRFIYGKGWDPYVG

Amino acid sequences for entries named in this document (tags omitted).
UniProt O60828: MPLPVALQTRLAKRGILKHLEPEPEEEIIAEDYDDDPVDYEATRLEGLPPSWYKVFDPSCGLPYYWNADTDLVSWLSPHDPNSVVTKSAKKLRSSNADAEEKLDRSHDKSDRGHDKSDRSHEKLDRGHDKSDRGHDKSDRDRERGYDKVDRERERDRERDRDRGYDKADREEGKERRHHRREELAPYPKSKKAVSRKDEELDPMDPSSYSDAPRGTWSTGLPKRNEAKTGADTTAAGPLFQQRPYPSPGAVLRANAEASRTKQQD
UniProt Q06187: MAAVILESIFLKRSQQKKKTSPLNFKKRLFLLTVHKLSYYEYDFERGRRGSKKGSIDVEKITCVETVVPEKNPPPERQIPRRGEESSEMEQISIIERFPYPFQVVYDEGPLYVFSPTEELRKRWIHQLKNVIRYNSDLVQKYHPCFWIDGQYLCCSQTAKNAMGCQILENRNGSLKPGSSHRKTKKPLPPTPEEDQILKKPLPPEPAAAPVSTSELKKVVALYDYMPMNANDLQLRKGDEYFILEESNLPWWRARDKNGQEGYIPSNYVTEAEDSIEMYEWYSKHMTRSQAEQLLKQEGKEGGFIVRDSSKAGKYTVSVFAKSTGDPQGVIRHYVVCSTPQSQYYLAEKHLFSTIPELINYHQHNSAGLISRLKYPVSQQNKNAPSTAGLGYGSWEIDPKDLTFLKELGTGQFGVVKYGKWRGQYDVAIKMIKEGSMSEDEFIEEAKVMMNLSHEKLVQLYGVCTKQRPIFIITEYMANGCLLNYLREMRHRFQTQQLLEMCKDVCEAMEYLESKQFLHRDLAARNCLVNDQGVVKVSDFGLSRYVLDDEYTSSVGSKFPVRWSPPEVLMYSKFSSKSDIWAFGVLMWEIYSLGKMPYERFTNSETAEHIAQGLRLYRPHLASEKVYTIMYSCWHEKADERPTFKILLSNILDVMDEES

B1: MICA (protein, UniProt Q29983 24-383)
chain: EPHSLRYNLTVLSWDGSVQSGFLTEVHLDGQPFLRCDRQKCRAKPQGQWAEDVLGNKTWDRETRDLTGNGKDLRMTLAHIKDQKEGLHSLQEIRVCEIHEDNSTRSSQHFYYDGELFLSQNLETKEWTMPQSSRAQTLAMNVRNFLKEDAMKTKTHYHAMHADCLQELRRYLKSGVVLRRTVPPMVNVTRSEASEGNITVTCRASGFYPWNITLSWRQDGVSLSHDTQQWGDVLPDGNGTYQTWVATRICQGEEQRFTCYMEHSGNHSTHPVPSGKVLVLQSHWQTFHVSAVAAAAIFVIIIFYVRCCKKKTSAAEGPELVSLQVLDQHPVGTSDHRDATQLGFQPLMSDLGSTGSTEGA

Molecular target: T1, FLAG-CPVL (carboxypeptidase, vitellogenic-like) (human)
Test: affinity purification with mass spectrometry; lysate of about 5 x 10^8 U251 cells stably expressing FLAG-CPVL on an anti-FLAG M2 column; washed with BC500 (50 mM Tris, 2 mM EDTA, 500 mM KCl, 10% glycerol); eluted with FLAG peptide; SDS-PAGE, silver stain, LC-MS/MS

| Molecule | binding |
| --- | --- |
| PQBP1 (from UniProt O60828 1-265) | binds |
| Bruton's tyrosine kinase (BTK) (from UniProt Q06187 1-659) (enzyme) | binds |
| B1 | binds |

Reference: article PMC8783677
